Data as given in PubChem BioAssay AID1259424 (University of Nebraska Medical Center, 2018).
Test: 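Seek colon cancer survival genes behaving like KSR1, using a six-gene signature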 (primary screen). System: human HCT116 colon cancer cells. Reagents: siRNA pool against human genes, 50 nM. Measured: 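Six signature mRNAs by branched-DNA multiplex assay, scaled to two housekeeping genes and non-targeting median, log2; matched to mean KSR1 knockdown profile by Pearson correlation and euclidean distance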. Direction: mean correlation with KSR1 profile and KSR1 correlation: higher = expression change more like KSR1 knockdown; mean distance from KSR1 profile: higher = expression change less like KSR1 knockdown.
Shown is a random part of about 14,000 reagents tested. 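Higher correlation or smaller distance means closer resemblance to KSR1 loss; control wells, including KSR1 knockdowns, recur on many plates.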 Not all columns of the deposit are shown. Not given: the time to read-out.

Target gene	mean correlation with KSR1 profile	mean distance from KSR1 profile	KSR1 correlation, replicate 1
ACVR2B	0.559	1.76	0.816
GJB3	-0.397	1.82	-0.395
MYC	-0.125	2.28	-0.471
NOL8	0.297	2.42	0.364
CRP	-0.39	2.59	-0.255
TTC22	-0.057	3.71	0.12
BNIP2	0.0449	1.95	0.115
MUC5B	0.597	2.04	0.714
TSC22D3	-0.338	4.7	-0.251
F2RL1	0.653	1.61	0.739
GAK	-0.595	3.3	0.136
CDH15	0.375	1.36	0.45
KCNG3	-0.325	2.13	-0.371
SEPTIN4	-0.214	4.11	-0.139
TRABD	0.83	0.808	0.353
HDGFL3	-0.663	1.67	-0.399
ZYX	-0.133	2.87	0.165
PTH2R	0.636	2.13	0.739
USP31	-0.638	2.55	-0.218
PRX	0.693	1.42	0.694
DEFB4A	0.76	1.44	0.677
UROD	-0.767	1.64	-0.635
NKX2-3	-0.0475	1.94	0.186
COTL1	-0.495	4.68	-0.535
HES6	-0.213	4.03	-0.115
EN2	0.804	1.24	0.698
DNAJC1	0.12	2.08	0.0346
CYP3A5	-0.0935	2.45	-0.641
S1PR1	0.486	2.61	0.333
ZCCHC2	0.546	2.58	0.441
HNRNPA2B1	-0.192	2.9	-0.272
TM4SF1	-0.28	1.56	-0.189
GABRR2	-0.136	2.85	-0.087
ELK4	0.606	1.88	0.14
TAS2R5	0.45	2.22	0.432
LIPE	0.438	2.19	0.476
PSMD5	-0.226	2.44	-0.324
MRPL23	0.00264	1.15	-0.46
IL12RB1	0.24	1.98	-0.0082
IARS1	-0.301	4.52	-0.481
SETD2	-0.0708	1.28	-0.157
ACP1	0.12	1.67	0.0785
TMEM74B	-0.109	1.76	-0.0208
MST1R	0.0495	3.12	0.0506
HOMER2	0.116	1.58	0.0426
KCNK15	0.127	1.74	-0.144
FABP5	-0.0247	1.34	0.0178
TNIK	0.547	1.84	0.592
HOXC4	-0.3	2.8	-0.135
HOXA5	0.517	2.38	0.465

7 entries from above, arranged by “mean correlation with KSR1 profile”, descending.
Target gene	mean correlation with KSR1 profile	mean distance from KSR1 profile	KSR1 correlation, replicate 1
DEFB4A	0.76	1.44	0.677
PRX	0.693	1.42	0.694
PTH2R	0.636	2.13	0.739
ZYX	-0.133	2.87	0.165
USP31	-0.638	2.55	-0.218
HDGFL3	-0.663	1.67	-0.399
UROD	-0.767	1.64	-0.635
